PubChem BioAssay AID1508600 (Functional Genomics Laboratory (NCATS/FGL), 2020)
Hit rate of the full screen: of about 53,000 sequences, about 3,700 (7%) were called active.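 Rule for the calls: active = gene knockdowns whose robust z-score for IL-1 alpha signal is at least 2 or at most -2, so actives lie on both sides; inactive = the rest.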 Some of the results follow.

Assay: Components of the Cytosolic LPS Sensing Pathway: Gene Identification via Genome-wide siRNA Screen;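 note: robust z of the log signal after scaling to non-targeting control siRNA wells of the plate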
Details: RAW264.7 macrophages, IL-1a HTRF, actives lie on both sides, screened at 100 nM (by protocol), cells primed 5 h with Pam3CSK4 first
Summary of the method: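 Mouse macrophage line RAW264.7 is transfected with siRNA (100 nM final), grown 48h, primed with TLR ligand Pam3CSK4 5 h and given intracellular LipidA 24 h. IL-1a in supernatant is read by HTRF and viability by luminescence.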
In the case of GGCCAGACUUUCUGACUAUTT against Golga1, the z-score is reported as inactive: 0.0556.
With “GCGGAAACUUGUUAACGAATT against 1600014C10Rik” the z-score was inactive: 0.422.
In the case of GGUCAUACAUGUGAAGACATT against Tsr2, the z-score is reported as active: 2.01.
With GGCCUUUUCCAUAAACUUUTT against Ddx60 the z-score was inactive: 0.873.
For GCUUCUUAGAGUCUUACCUTT against Rnf38, the z-score was inactive: -1.23.
For GCGGCAUCUACUUAAUAUGTT against Acer2, the z-score was active: 2.12.
In the case of CCCUCACAACUUGAAGGACTT against Ccnk, the z-score is reported as inactive: -0.882.
With GGGACAUGAGCCAUUCAUCTT against Lcor the z-score was inactive: 0.749.
In the case of GCCUAGAAAGUCUGAAUAATT against Ifng, the z-score is reported as inactive: 0.203.
For GAUUGCUACUCUGGCUUUATT against Tmem47, the z-score was inactive: -0.284.
With GGCUUGUACUACCAUGACATT against Rasgef1b the z-score was active: -2.76.
With GAUCAAAGAGGAGGAGCCCTT against Insm2 the z-score was inactive: -0.202.
With GGAAAACCCAGGUCAGAAUTT against Serpina9 the z-score was inactive: -1.07.
With GGUUAAAGGCAACCCUGAATT against Cys1 the z-score was inactive: 1.79.
With CGCAACCUGAAAAUGGCAUTT against Clba1 the z-score was inactive: 0.34.
With CCAUAUCUAUGAUAUGGUUTT against Piezo2 the z-score was active: -2.18.
In the case of “GCAUGCAUAAGCUUUUACCTT against 1700129C05Rik”, the z-score is reported as inactive: -1.64.
In the case of “GAGUGAGCAAAUACCAGUUTT against 1700001J03Rik”, the z-score is reported as active: 2.52.
With CCUUAGCUGUCCUUGUGGUTT against Defb28 the z-score was inactive: -1.36.
For GCAGCUAUCUCUCAUGGACTT against Olfr693, the z-score was inactive: 1.15.
In the case of GGGUCACCGAUGGAAAUCUTT against Lta4h, the z-score is reported as inactive: -1.58.
With GGUGGUGUGCAAAAAGUACTT against Clic1 the z-score was inactive: -0.0209.
With GGACUUGAAACUUCUGGAUTT against Nudt16 the z-score was inactive: 0.453.
For CCCACCAAUGUCAGCGUGUTT against Igha, the z-score was inactive: 0.207.
For CCGUGUGAGAUAUGAAGAATT against Ermard, the z-score was inactive: -1.55.
With GGCUGUGAAGCAAAAGCAGTT against Nhp2 the z-score was inactive: 0.276.
With GGUGUAUACUGUGAAAUCATT against Notch1 the z-score was inactive: -0.319.
For GGUGUGUGCUAGGACUGAGTT against Cfap61, the z-score was inactive: 1.35.
With CCGGACAAUAUGCUUAUUUTT against Mastl the z-score was inactive: -0.52.
With GGCAUAAAAUCCAUCUAAUTT against Htr2a the z-score was inactive: -0.219.
For CCACAUCAAGUUCACCCAGTT against Dctn1, the z-score was inactive: -0.337.
In the case of CGCAAAAUUCCGAUGGUGCTT against Pla2g12b, the z-score is reported as inactive: -0.97.
In the case of GCGGCGAGUGUAUAGAUUGTT against Zdhhc1, the z-score is reported as inactive: 0.211.
With AGUCUCCAAAUGCAUUUAATT against Serpinb9g the z-score was active: -2.5.
In the case of GCCGGAACAUCCAGAAUAGTT against Cpeb2, the z-score is reported as inactive: -0.644.
With GGAACUAGAGUCUCAAGUATT against Obi1 the z-score was inactive: 0.718.
With CCAGUUAAAAAGGUUCCAATT against Ccdc169 the z-score was inactive: 1.46.
For GGACAUUAUUUCUAUAUGGTT against Eif4e2, the z-score was inactive: -1.2.
For GGCCCUAAUUUCAGUAAUATT against Pigv, the z-score was inactive: 0.568.
In the case of GGAAACCUACCAAGAAACGTT against Fam234a, the z-score is reported as inactive: -0.293.
In the case of GGUGGCCAUUCUUCUGUUCTT against Dynll1, the z-score is reported as active: 2.19.
In the case of GGGCUGGAAAGAACUUUACTT against Fgf8, the z-score is reported as inactive: -0.354.
For GCUCUUGGGAUGGACGAUATT against Hmgcs1, the z-score was active: 4.73.
For GGAAGGUGGCCUGAAGCUATT against Mlh1, the z-score was inactive: -1.62.
With GGGCUCUGUUGUAAUCAUGTT against Olfr366 the z-score was inactive: -0.173.
In the case of GCAUGGCCCAUGAAGACUUTT against Pir, the z-score is reported as inactive: -1.19.
For GGGAAAAAGAGAGUCUAUUTT against Tns2, the z-score was inactive: 1.14.
For GGCCAUCUUUGACAGUGCUTT against Dnah1, the z-score was inactive: 1.11.
For “GGAAACCUGAUGAUCUUUUTT against Olfr421-ps1”, the z-score was inactive: -1.27.
With GGAAUUAAAUCCUAGCUGATT against Tmem167 the z-score was inactive: 1.64.
In the case of CCGACGGAUAGCUUGGAUGTT against Fgb, the z-score is reported as inactive: -0.214.
For GGUCAGAGAUUAUUGAAUUTT against Ermap, the z-score was inactive: 0.321.
For CCCGGAUUAUUAAUGAGUCTT against Trim50, the z-score was inactive: 1.08.
In the case of GGAUGAUCUACACAUUGUGTT against Mrpl4, the z-score is reported as inactive: 0.519.
With CCUUGUCAUUCCAUACAAUTT against Rgs5 the z-score was inactive: 0.2.
In the case of GGUUUGGUGUCAGAUGUCATT against Olfr1182, the z-score is reported as active: -2.32.
With GCACAACACAAUCUAUAUGTT against Reps2 the z-score was inactive: -0.0604.
For GGCUGGAAAAAAUUUUGUCTT against Gemin2, the z-score was inactive: 0.266.
In the case of GGUUCACCUGUCAAGUGGATT against Hfe, the z-score is reported as inactive: 0.655.
In the case of GGCCAUAGAUAUUCAAGGUTT against Olfr218, the z-score is reported as inactive: 0.293.
For CGAGAUCACGAGAUCGGUUTT against Prdm4, the z-score was inactive: 1.89.
In the case of GGUACAGGGAAGGAUCGUGTT against Tnrc18, the z-score is reported as inactive: -0.654.
For GGAGAAAGGCCUUUUCUACTT against Olfr535, the z-score was inactive: 1.18.
In the case of GGAAGUUUGGUGGUCCAGUTT against Haus8, the z-score is reported as inactive: -1.7.
With GGAUCUAUGAAGCAAAAAATT against Rasa2 the z-score was inactive: -1.41.
In the case of GGCCAUUAGAAGCAAGAUUTT against Akr1c14, the z-score is reported as inactive: 0.331.
With GCGAAUUGACAACUCCCUCTT against Slc25a39 the z-score was inactive: -0.605.
In the case of GGACAUUGGAUUCUUCAUCTT against Grap2, the z-score is reported as inactive: 1.16.
